No constants are given. Whether binding was seen depends on the method and setting. Binding seen in cells or lysates may run through a third protein. Binding can be weak; no strength is given.
Target: T1, ETV7 (human) (UniProt Q9Y603)
T1 sequence: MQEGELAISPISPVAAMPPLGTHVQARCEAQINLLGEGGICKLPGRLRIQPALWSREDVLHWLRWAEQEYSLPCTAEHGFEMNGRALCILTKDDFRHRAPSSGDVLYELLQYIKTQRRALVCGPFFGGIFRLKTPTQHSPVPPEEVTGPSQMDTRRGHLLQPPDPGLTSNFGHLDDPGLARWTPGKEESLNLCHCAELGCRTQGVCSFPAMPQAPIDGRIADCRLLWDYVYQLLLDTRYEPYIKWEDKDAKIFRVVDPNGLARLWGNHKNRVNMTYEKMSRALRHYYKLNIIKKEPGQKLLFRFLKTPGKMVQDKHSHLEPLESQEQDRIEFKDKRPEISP
Assay: co-IP; two-way co-immunoprecipitation from lysates of PE and NPE tumors (NP tumors as control); 750 μg protein, 2 μg antibody overnight at 4 °C, Protein G Dynabeads, four washes with CHAPS lysis buffer (0.3% CHAPS, 120 mM NaCl, pH 7.4); Western blot

Protein sequences, listed by entry. Tags and fused reporters are not part of them. Lines headed by an entry give the natural chain unless they say otherwise; changes in a name come on top.
UniProt P63330: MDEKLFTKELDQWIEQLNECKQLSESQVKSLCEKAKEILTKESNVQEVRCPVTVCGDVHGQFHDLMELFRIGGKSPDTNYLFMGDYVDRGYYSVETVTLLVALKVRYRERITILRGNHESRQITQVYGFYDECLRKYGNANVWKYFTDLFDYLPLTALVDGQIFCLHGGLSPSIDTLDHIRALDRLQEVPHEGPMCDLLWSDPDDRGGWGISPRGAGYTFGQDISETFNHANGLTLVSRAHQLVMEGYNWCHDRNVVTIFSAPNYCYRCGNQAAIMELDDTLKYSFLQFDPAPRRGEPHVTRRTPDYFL

binding: binds
Substance: PP2Ac (from UniProt P63330)
